Results published in PMC7392604.
No constants are given. Whether binding was seen depends on the method and setting. In cells and extracts the contact can be indirect. Some results given as binding are weak or reduced against the parent protein; the word gives no strength. For part of these data: Tags and fused reporters may be left off the sequences shown.

Chains of the proteins cited; added tags and fusions are not shown.
UniProt Q8R3Z5: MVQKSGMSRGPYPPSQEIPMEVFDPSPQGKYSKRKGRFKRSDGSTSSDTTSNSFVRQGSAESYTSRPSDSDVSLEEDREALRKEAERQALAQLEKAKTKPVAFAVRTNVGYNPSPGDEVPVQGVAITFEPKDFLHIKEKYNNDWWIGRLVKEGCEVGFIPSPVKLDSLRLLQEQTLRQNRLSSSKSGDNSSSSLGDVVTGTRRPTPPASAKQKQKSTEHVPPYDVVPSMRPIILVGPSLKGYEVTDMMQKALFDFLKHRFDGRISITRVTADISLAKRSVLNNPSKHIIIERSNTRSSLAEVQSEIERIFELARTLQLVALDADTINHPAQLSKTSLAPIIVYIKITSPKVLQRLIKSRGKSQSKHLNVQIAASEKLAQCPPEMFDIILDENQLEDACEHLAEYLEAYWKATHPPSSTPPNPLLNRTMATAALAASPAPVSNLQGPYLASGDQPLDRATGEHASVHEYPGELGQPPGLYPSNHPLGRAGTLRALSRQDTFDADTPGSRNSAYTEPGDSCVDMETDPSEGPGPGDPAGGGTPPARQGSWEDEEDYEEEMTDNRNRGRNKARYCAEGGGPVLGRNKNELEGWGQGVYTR
UniProt P54283: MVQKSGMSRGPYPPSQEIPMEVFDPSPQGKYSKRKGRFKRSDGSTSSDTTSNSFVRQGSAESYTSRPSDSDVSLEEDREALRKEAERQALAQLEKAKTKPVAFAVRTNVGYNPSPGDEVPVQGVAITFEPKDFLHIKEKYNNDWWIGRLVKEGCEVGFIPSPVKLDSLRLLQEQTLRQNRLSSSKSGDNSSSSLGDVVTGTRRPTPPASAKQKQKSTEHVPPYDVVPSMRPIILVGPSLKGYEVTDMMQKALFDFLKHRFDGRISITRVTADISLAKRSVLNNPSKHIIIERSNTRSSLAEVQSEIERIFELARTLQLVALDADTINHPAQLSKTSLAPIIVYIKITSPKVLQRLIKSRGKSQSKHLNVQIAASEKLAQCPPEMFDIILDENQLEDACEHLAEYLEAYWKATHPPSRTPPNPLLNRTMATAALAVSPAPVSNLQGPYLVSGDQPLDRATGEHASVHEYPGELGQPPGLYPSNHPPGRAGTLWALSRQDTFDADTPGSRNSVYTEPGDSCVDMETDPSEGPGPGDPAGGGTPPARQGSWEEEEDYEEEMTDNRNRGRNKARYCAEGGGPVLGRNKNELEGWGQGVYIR

How the values were obtained:
[1] = biological target: L-type voltage-gated calcium channel beta-1 subunit (endogenous, mouse brain) (mouse (endogenous in brain)) (UniProt Q8R3Z5); assay: co-IP; mouse brain homogenates of wild-type and Tau KO mice, treated with 1 mM cross-linker DSP, mild co-IP buffer (10 mM Tris pH 7.5, 10 mM NaCl, 3 mM MgCl2, 1 mM EGTA, 0.05% Nonidet P-40); LVGCC-β1 immunoprecipitated (5 µg antibody, Protein G magnetic beads), blotted for BIN1; complex reduced in Tau KO brains
[2] = biological target: L-type voltage-gated calcium channel beta-1 subunit (endogenous, rat hippocampal neurons) (rat (endogenous in primary hippocampal neurons)) (UniProt P54283); assay: proximity ligation; fixed, permeabilized primary rat hippocampal neurons; primary antibodies for BIN1 (sc-30099) and LVGCC-β1 (S7-18), Duolink In Situ Fluorescence kit; puncta per field of view; untransduced, AAV-mKate2 or AAV-BIN1-mKate2; also with Tau ASO or scrambled ASO (1 µM), Tau reduction decreased the interaction

Row | binding [1] | binding [2] | Molecule
1 | binds |  | BIN1 (endogenous, mouse brain) (from UniProt O08539 1-588)
2 |  | binds | BIN1 (endogenous, rat hippocampal neurons) (protein, UniProt O08839 1-588) MAEMGSKGVTAGKIASNVQKKLTRAQEKVLQKLGKADETKDEQFEQCVQNFNKQLTEGTRLQKDLRTYLASVKAMHEASKKLSECLQEVYEPEWPGRDEANKIAENNDLLWMDYHQKLVDQALLTMDTYLGQFPDIKSRIAKRGRKLVDYDSARHHYESLQTAKKKDEAKIAKPVSLLEKAAPQWCQGKLQAHLVAQTNLLRNQAEEELIKAQKVFEEMNVDLQEELPSLWNSRVGFYVNTFQSIAGLEENFHKEMSKLNQNLNDVLVSLEKQHGSNTFTVKAQPSDSAPEKGNKSPSPPPDGSPAATPEIRVNHEPEPASGASPGATIPKSPSQLRKGPPVPPPPKHTPSKEMKQEQILSLFDDAFVPEISVTTPSQFEAPGPFSEQASLLDLDFEPLPPVASPVKAPTPSGQSIPWDLWEPTESQAGVLPSGEPSSAEGSFAVAWPSQTAEPGPAQPAEASEVVGGTQEPGETAASEATSSSLPAVVVETFSATVNGAVEGSTTTGRLDLPPGFMFKVQAQHDYTATDTDELQLKAGDVVLVIPFQNPEEQDEGWLMGVKESDWNQHKELEKCRGVFPENFTERVQ
3 |  | binds | human BIN1 isoform 1 tagged with mKate2 at the C-terminus (protein, UniProt O00499 1-593) MAEMGSKGVTAGKIASNVQKKLTRAQEKVLQKLGKADETKDEQFEQCVQNFNKQLTEGTRLQKDLRTYLASVKAMHEASKKLNECLQEVYEPDWPGRDEANKIAENNDLLWMDYHQKLVDQALLTMDTYLGQFPDIKSRIAKRGRKLVDYDSARHHYESLQTAKKKDEAKIAKPVSLLEKAAPQWCQGKLQAHLVAQTNLLRNQAEEELIKAQKVFEEMNVDLQEELPSLWNSRVGFYVNTFQSIAGLEENFHKEMSKLNQNLNDVLVGLEKQHGSNTFTVKAQPSDNAPAKGNKSPSPPDGSPAATPEIRVNHEPEPAGGATPGATLPKSPSQLRKGPPVPPPPKHTPSKEVKQEQILSLFEDTFVPEISVTTPSQFEAPGPFSEQASLLDLDFDPLPPVTSPVKAPTPSGQSIPWDLWEPTESPAGSLPSGEPSAAEGTFAVSWPSQTAEPGPAQPAEASEVAGGTQPAAGAQEPGETAASEAASSSLPAVVVETFPATVNGTVEGGSGAGRLDLPPGFMFKVQAQHDYTATDTDELQLKAGDVVLVIPFQNPEEQDEGWLMGVKESDWNQHKELEKCRGVFPENFTERVP
